Taken from: PubChem BioAssay AID1224826 (NIAID, 2016)

Aim: 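Genes that change LPS-induced Tnf promoter activity in mouse macrophages when knocked down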 (primary screen)
System: RAW264.7 G9 macrophages from mouse bearing reporters for p65 (GFP) and the Tnf promoter (mCherry)
Reagent: siRNA pool against mouse genes, 100 nM
Duration: 16 h of LPS stimulation, after 2 days of siRNA transfection
Treatment: bacterial lipopolysaccharide (Salmonella minnesota R595), 10 ng/ml
Read-out: 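Imaged Tnf reporter mCherry in nuclei, minus background, normalised per plate to the median and expressed as robust z-scores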
Scale: Tnf reporter robust z-score: higher = stronger Tnf promoter reporter signal after LPS
Call rule: 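a well counts as active at a score of -1.3 or below (Tlr4 knock-down control median) or above 3 (raised signal); controls and wells holding fewer than 50 cells are excluded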
Meaning of the calls: active = Tnf reporter clearly lowered or raised; inactive = no clear change in Tnf reporter
This is one part, drawn at random, of about 17,000 deposited reagents. In the full data, about 1,110 (6.6%) were called active. 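Active means lowered or raised reporter signal; replicate intensities are raw and not normalised per plate.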 Further read-outs or replicates are left out here.

target gene	Tnf reporter robust z-score	fewer than 50 cells in well	Call
Ints9	0.27	enough cells in well	inactive
Rabggta	-0.79	enough cells in well	inactive
Itm2c	0.46	enough cells in well	inactive
Or14j2	-0.67	enough cells in well	inactive
Zap70		fewer than 50 cells per well; well left out of calls	inactive
Pcdhb6	-0.88	enough cells in well	inactive
Tmem143	2.12	enough cells in well	inactive
Nell1	0.53	enough cells in well	inactive
Snrpg		fewer than 50 cells per well; well left out of calls	inactive
Tlr11	2.51	enough cells in well	inactive
Ralgps2	-0.78	enough cells in well	inactive
Zfp935	-1.5	enough cells in well	active
Tas2r135	0.7	enough cells in well	inactive
Pir	0.58	enough cells in well	inactive
Praf2	-0.99	enough cells in well	inactive
Or5p67		fewer than 50 cells per well; well left out of calls	inactive
AI931714	0.62	enough cells in well	inactive
Elac1	-0.62	enough cells in well	inactive
Jagn1	0	enough cells in well	inactive
Nfatc2	-0.52	enough cells in well	inactive
Dolpp1	-0.47	enough cells in well	inactive
Or51f5		fewer than 50 cells per well; well left out of calls	inactive
Prkch	-0.41	enough cells in well	inactive
Tpte	0.38	enough cells in well	inactive
